Results taken from US7585997B2, “Compounds and compositions for treating dysproliferative diseases, and methods of use thereof” (Chesterford Enterprises Limited, priority 2003, dated 2009).

Columns and labels:
[1] = test system: BxPC3, carcinoma of pancreas; test: Cell growth inhibition, BxPC3 cells; type: cell-based; details: Homo sapiens, BXPC-3, 24 h, read-out: IC50, BxPC3, pancreas
[2] = test system: HT-29 human colon adenocarcinoma; test: Cell growth inhibition, HT-29 cells; type: cell-based; details: HT-29, 24 h, read-out: IC50, HT-29, colon

Structure (SMILES)	IC50 [1] [µM]	IC50 [2] [µM]
COc1ccc(C=CC(=O)Oc2ccc(CO[N+](=O)[O-])cc2)cc1OC [Compound 81, 3,4-dimethoxycinnamic acid 4-(nitrooxymethyl)phenyl ester]	18 ± 3	33 ± 4
O=C(C=Cc1ccccc1)Oc1ccc(CCl)cc1 [Compound 69, cinnamic acid 4-(chloromethyl)phenyl ester]	4 ± 1	6 ± 1
